Laboratory results taken from patent publication US20170189504A1, “NOVEL PEPTIDES AND COMBINATION OF PEPTIDES FOR USE IN IMMUNOTHERAPY AGAINST VARIOUS CANCERS” (immatics biotechnologies GmbH, priority 2015, published 2017).
For part of these data: For expression read-outs the peptide stands for its source gene, whose mRNA was measured; the gene is not named for every peptide.

How the values were obtained:
HLA-A*24 = assay: Identification and relative LC-MS quantitation of HLA-A*24-presented tumor-associated peptides on tissue samples (presentation profiles, Tables 14A, 14B, 16, FIG. 1); parameters: species or system human; key to Presentation score GC / Presentation score NSCLC / Presentation score PCA / Presentation score GB / Presentation score HCC / Presentation score RCC: specifically presented on tumors (++++); very highly over-presented on tumors compared to a panel of normal tissues (+++); highly over-presented on tumors compared to a panel of normal tissues (++); over-presented on tumors compared to a panel of normal tissues (+); details: for Presentation score GC / Presentation score GB / Presentation score NSCLC / Presentation score HCC / Presentation score PCA / Presentation score RCC: HLA-A*24 peptides; for Presentation score GC: gastric cancer (N = 44) vs panel of normal tissues (N = 70); for Presentation score GB: glioblastoma (N = 18) vs panel of normal tissues (N = 70); for Presentation score NSCLC: non-small cell lung cancer (N = 91) vs panel of normal tissues (N = 70); for Presentation score HCC: hepatocellular carcinoma (N = 15) vs panel of normal tissues (N = 70); for Presentation score PCA: prostate cancer (N = 40) vs panel of normal tissues (N = 70); for Presentation score RCC: renal cell carcinoma (N = 2) vs panel of normal tissues (N = 70)
source genes (mRNA) = assay: Gene and exon expression of source genes, TCGA tumor samples compared with normal tissue samples (Lonsdale, 2013) (Table 17); parameters: species or system human; details: LAML = Acute Myeloid Leukemia (N = 173); same cutoff
[1] = HLA-A*24-binding peptides, additional cancer entities, GB = glioblastoma, HCC = hepatocellular carcinoma, NSCLC = non-small cell lung cancer, PCA = prostate cancer
[2] = Table 14A, HLA-A*24-binding tumor-associated peptides, cancer entities on which the peptide was found presented
[3] = FIG. 1, A*24 positive samples, only samples with presentation shown

| Substance | Presentation score GC (HLA-A*24) | Presentation score GB (HLA-A*24) | Presentation score NSCLC (HLA-A*24) | Peptide Presentation on cancer entities (HLA-A*24; [2]) | other results |
| --- | --- | --- | --- | --- | --- |
| 162: peptide found in CTSG (gene looked up) (VFTRVSSFL; listed as Homo sapiens) [compound 162] | ++++ | ++++ | ++++ | GB, GC, NSCLC | Peptide Presentation on cancer entities (HLA-A*24; [1]): HCC; Over-expression category of source gene (target coverage), LAML (source genes (mRNA)): A (>=50% of tumors above the cutoff) |
| 198 (LYLDKATLI; listed as Homo sapiens) [compound 198] | ++ |  | + | GB, GC, NSCLC, HCC, PCA | Presentation score HCC (HLA-A*24): ++ |
| 202 (VYWDSAGAAHF; listed as Homo sapiens) [compound 202] |  |  | + | NSCLC |  |
| 203 (FYSRLLQKF; listed as Homo sapiens) [compound 203] | + |  |  | GC, NSCLC | number of cell lines where the peptide was found to be presented (HLA-A*24; FIG. 1, A*24 positive samples, cell lines include benign prostate hyperplasias): 1; number of cancer tissues where the peptide was found to be presented (HLA-A*24; [3]): 15 |
| 204 (TYELRYFQI; listed as Homo sapiens) [compound 204] | +++ | ++ | +++ | GB, GC, NSCLC, HCC | Presentation score HCC (HLA-A*24): + |
| 205 (VHIPEVYLI; listed as Homo sapiens) [compound 205] |  |  |  | GC, NSCLC |  |
| 206 (EYQENFLSF; listed as Homo sapiens) [compound 206] |  |  |  | NSCLC, PCA |  |
| 209 (TYKDEGNDYF; listed as Homo sapiens) [compound 209] |  | +++ | + | GB, NSCLC |  |
| 211 (YYLEVGKTLI; listed as Homo sapiens) [compound 211] | +++ |  |  | GC, NSCLC, HCC |  |
| 213 (IFDEAEKL; listed as Homo sapiens) [compound 213] |  |  | ++ | NSCLC, PCA | Presentation score PCA (HLA-A*24): +++ |
| 215 (YFDKVVTL; listed as Homo sapiens) [compound 215] |  |  | ++++ | NSCLC, HCC | Presentation score HCC (HLA-A*24): ++++ |
| 217 (FFPPTRQMGLLF; listed as Homo sapiens) [compound 217] | ++++ |  |  |  |  |
| 218 (YYKSTSSAF; listed as Homo sapiens) [compound 218] | + | ++ | ++ | GB, GC, NSCLC, HCC, PCA | Peptide Presentation on cancer entities (HLA-A*24; [1]): SCLC |
| 219 (EYPLVINTL; listed as Homo sapiens) [compound 219] |  | +++ | + | GB, GC, NSCLC, HCC, RCC | Presentation score HCC (HLA-A*24): +; Presentation score RCC (HLA-A*24): ++ |
| 221 (RYSTGLAGNLL; listed as Homo sapiens) [compound 221] |  |  |  | GB, NSCLC, HCC, PCA |  |
| 222 (TFSVSSHLF; listed as Homo sapiens) [compound 222] |  |  | + | GB, NSCLC, HCC | Presentation score HCC (HLA-A*24): + |
| 225 (YYVYIMNHL; listed as Homo sapiens) [compound 225] |  |  | ++ | GB, NSCLC |  |
| 226 (VYRDETGELF; listed as Homo sapiens) [compound 226] |  |  |  | GB, NSCLC, HCC, PCA |  |

| Substance | Presentation score GC (HLA-A*24) | Presentation score GB (HLA-A*24) | Presentation score NSCLC (HLA-A*24) | Peptide Presentation on cancer entities (HLA-A*24; [2]) | other results |
| --- | --- | --- | --- | --- | --- |
| 227 (IFLDYEAGTLSF; listed as Homo sapiens) [compound 227] | +++ |  |  | GC, RCC | Peptide Presentation on cancer entities (HLA-A*24; [1]): NSCLC; Presentation score RCC (HLA-A*24): +++ |
| 267 (KYMVYPQTF; listed as Homo sapiens) [compound 267] | +++ | +++ | +++ | GB, GC, NSCLC, HCC, PCA | Presentation score HCC (HLA-A*24): +++; Presentation score PCA (HLA-A*24): +++ |
| 269 (YFIDSTNLKTHF; listed as Homo sapiens) [compound 269] | ++++ |  | ++++ | GC, NSCLC, HCC | Presentation score HCC (HLA-A*24): ++++ |
| 270 (NYYEVHKELF; listed as Homo sapiens) [compound 270] | ++++ | ++++ | ++++ | GB, GC, NSCLC | number of cancer tissues where the peptide was found to be presented (HLA-A*24; [3]): 14 |
| 271 (LYHDIFSRL; listed as Homo sapiens) [compound 271] | ++++ |  | ++++ | GC, NSCLC, HCC | Presentation score HCC (HLA-A*24): ++++ |
| 273 (TYIKPISKL; listed as Homo sapiens) [compound 273] |  | ++++ | ++++ | GB, NSCLC |  |
| 278 (RYISDQLFTNF; listed as Homo sapiens) [compound 278] | ++ | + |  | GB, GC, NSCLC, HCC, PCA, RCC | number of cancer tissues where the peptide was found to be presented (HLA-A*24; [3]): 31; number of normal tissues where the peptide was found to be presented (HLA-A*24; [3]): 1 |
| 279 (TYIESASEL; listed as Homo sapiens) [compound 279] |  |  |  | NSCLC, RCC | Presentation score RCC (HLA-A*24): +++ |
| 280 (RYPDNLKHLYL; listed as Homo sapiens) [compound 280] |  |  |  | GC, NSCLC, HCC | Presentation score HCC (HLA-A*24): + |
| 286 (RYPDNLKHL; listed as Homo sapiens) [compound 286] |  |  | + | NSCLC, HCC, PCA | Presentation score HCC (HLA-A*24): ++ |
| 287 (LYITEPKTI; listed as Homo sapiens) [compound 287] | + | + |  | GB, GC, NSCLC, HCC | number of cancer tissues where the peptide was found to be presented (HLA-A*24; [3]): 12 |
| 289 (KYPVEWAKF; listed as Homo sapiens) [compound 289] |  |  |  | PCA, RCC | Presentation score PCA (HLA-A*24): +++; Presentation score RCC (HLA-A*24): +++ |
| 295 (YYPGVILGF; listed as Homo sapiens) [compound 295] |  | ++++ | ++++ | GB, NSCLC, RCC | Presentation score RCC (HLA-A*24): ++++ |
| 296 (TYVDSSHTI; listed as Homo sapiens) [compound 296] |  |  |  | GB, GC, NSCLC, HCC, PCA |  |
| 297 (PFLQASPHF; listed as Homo sapiens) [compound 297] | +++ |  | +++ | GC, NSCLC |  |
| 298 (RYLEGTSCI; listed as Homo sapiens) [compound 298] |  | + |  | GB, GC, NSCLC, HCC |  |
| 299 (VYFVAPAKF; listed as Homo sapiens) [compound 299] |  |  | ++ | GC, NSCLC |  |
| 300 (AYVLRLETL; listed as Homo sapiens) [compound 300] | +++ | +++ | +++ | GB, GC, NSCLC, RCC | Presentation score RCC (HLA-A*24): +++ |
